No constants are given. Whether binding was seen depends on the method and setting. In cells and extracts the contact can be indirect. Some results given as binding are weak or reduced against the parent protein; the word gives no strength.

Protein sequences, listed by entry. Tags and fused reporters are not part of them. Residues count along the entry.
UniProt P60520, residues 1-115: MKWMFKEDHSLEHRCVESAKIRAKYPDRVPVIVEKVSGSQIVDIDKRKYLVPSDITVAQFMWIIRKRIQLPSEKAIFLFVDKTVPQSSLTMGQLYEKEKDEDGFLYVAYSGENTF

The target in this assay is SGFP2-GATE-16wt (human) (UniProt P60520). The assay can be described thus: co-IP; GFP-Trap agarose beads on lysates of doxycycline-induced HeLa Flp-In T-REx cells expressing SGFP2 fusions; immunoblot for endogenous OPTN, NDP52, p62; lysis buffer 10 mM TRIS pH 7.5, NaCl, 0.5% NP-40, 1 mM EDTA.

B1: endogenous NDP52 (CALCOCO2) (protein, UniProt Q13137 1-446)
chain: MEETIKDPPTSAVLLDHCHFSQVIFNSVEKFYIPGGDVTCHYTFTQHFIPRRKDWIGIFRVGWKTTREYYTFMWVTLPIDLNNKSAKQQEVQFKAYYLPKDDEYYQFCYVDEDGVVRGASIPFQFRPENEEDILVVTTQGEVEEIEQHNKELCKENQELKDSCISLQKQNSDMQAELQKKQEELETLQSINKKLELKVKEQKDYWETELLQLKEQNQKMSSENEKMGIRVDQLQAQLSTQEKEMEKLVQGDQDKTEQLEQLKKENDHLFLSLTEQRKDQKKLEQTVEQMKQNETTAMKKQQELMDENFDLSKRLSENEIICNALQRQKERLEGENDLLKRENSRLLSYMGLDFNSLPYQVPTSDEGGARQNPGLAYGNPYSGIQESSSPSPLSIKKCPICKADDICDHTLEQQQMQPLCFNCPICDKIFPATEKQIFEDHVFCHSL
For the molecule B1, the binding result is given as “binds weakly”.

Source of the values: publication PMC7137635.
